Consider one substance from US5449752A (Seikagaku Kogyo K.K., priority 1991, dated 1995).

Some peptides are written in HELM: one residue between dots, names in brackets for other building blocks, links after the first $.

The series in a line: general procedure: Fmoc solid-phase peptide synthesis; DMBHA resin; DIPCDI-HOBt. Conditions: whole synthesis, calculated based on the protecting group-protected polypeptide (1) resin, scale 0.2 mmole.

Regarding “PEPTIDE1{R.R.W.C.Y.R.K.C.Y.K.G.Y.C.Y.R.K.C.R.[am]}$PEPTIDE1,PEPTIDE1,4:R3-17:R3|PEPTIDE1,PEPTIDE1,8:R3-13:R3$$$V2.0”, the isolated yield is 27%.
